{
  "source": "PubChem BioAssay AID493014",
  "about": "(National Center for Advancing Translational Sciences (NCATS), 2011)",
  "assay": "qHTS Assay to Find Inhibitors of Chronic Active B-Cell Receptor Signaling",
  "settings": "ABC-DLBCL IkBa-CBG/CBR reporter, luminescence ratio (green luciferase fused to IkBa over red control in TMD8 lymphoma cells), 4 h",
  "in_short": "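Compounds up to 46 uM were incubated four hours with TMD8 cells whose green CBG68 luciferase is fused to IkappaBalpha; red CBR luminescence normalised the signal, and concentration-effect curves were fitted to fusion, red and ratio data.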",
  "key": {"[1]": {"settings": "measured here: CBR red luminescence, cell number"}},
  "note": "Some of the results follow. The main result of the screen is listed elsewhere. These columns were measured beside it and carry no call. The list favours compounds with an active or inconclusive main result. Potencies come from curve fits of mixed quality, noted in brackets.",
  "data": [
    {"smiles": "CCn1c(=N)n(CC(=O)c2cccc([N+](=O)[O-])c2)c2ccccc21", "values": [
      {"measurement": "AC50", "setting": "[1]", "value": "8.2 µM [rising, partial curve, poor fit]"}
    ]},
    {"smiles": "COC(=O)[C@@]1(Cc2ccc(F)cc2)[C@H]2c3cc(C(=O)N4CCCC4)n(CCCNc4ncc(C(F)(F)F)cc4Cl)c3C[C@H]2CN1C(=O)c1ccccc1", "values": [
      {"measurement": "AC50", "setting": "[1]", "value": "5.62 µM [falling, full curve]"}
    ]},
    {"smiles": "Cc1ccc(NC(=O)Cn2cccc2)c(Br)c1", "values": [
      {"measurement": "AC50", "setting": "[1]", "value": "14.1 µM [rising, partial curve, poor fit]"}
    ]},
    {"smiles": "CCOC(=O)c1sc(Nc2nc3c(F)cccc3s2)cc1C", "values": [
      {"measurement": "AC50", "setting": "[1]", "value": "14.6 µM [rising, single point]"}
    ]},
    {"smiles": "O=c1c2c3nc4ccccc4nc3n(Cc3ccccc3)c2ncn1Cc1ccco1", "values": [
      {"measurement": "AC50", "setting": "[1]", "value": "0.731 µM [falling, full curve, poor fit]"}
    ]},
    {"smiles": "COc1cccc(/C=N\\NC(=O)C2=NNC(=O)C2C)c1O", "note": "(stereo unspecified)", "values": [
      {"measurement": "AC50", "setting": "[1]", "value": "0.92 µM [falling, full curve]"}
    ]},
    {"smiles": "Cc1cc(S(=O)(=O)Nc2ccc(C(=O)NCC3(N4CCCCC4)CCCCC3)cc2)ccc1F", "values": [
      {"measurement": "AC50", "setting": "[1]", "value": "20.6 µM [falling, single point]"}
    ]},
    {"smiles": "CCCCOc1ccc(C(=O)OC2CC(C)N(C)CC2C)cc1", "note": "(stereo unspecified)", "values": [
      {"measurement": "AC50", "setting": "[1]", "value": "4.11 µM [falling, single point]"},
      {"measurement": "AC50", "setting": "measured here: IkBa-CBG green luminescence", "value": "6.51 µM [rising, partial curve, poor fit]"}
    ]},
    {"smiles": "CCCOc1ccc(C(=O)CCNC(Cc2c[nH]c3ccccc23)C(=O)O)cc1", "note": "(stereo unspecified)", "values": [
      {"measurement": "AC50", "setting": "[1]", "value": "25.1 µM [falling, single point]"}
    ]},
    {"smiles": "CN1CCc2c(n(CC(O)CN3C(=O)c4ccccc4S3(=O)=O)c3ccccc23)C1=O", "note": "(stereo unspecified)", "values": [
      {"measurement": "AC50", "setting": "[1]", "value": "4.61 µM [rising, single point]"}
    ]},
    {"smiles": "C=C(C)CNC(=S)NNC(=O)c1ccc(Br)cc1", "values": [
      {"measurement": "AC50", "setting": "[1]", "value": "8.2 µM [falling, partial curve]"}
    ]},
    {"smiles": "CC(C)(C)c1ccc(S(=O)(=O)Nc2ccc(Cc3ccncc3)cc2)cc1", "values": [
      {"measurement": "AC50", "setting": "[1]", "value": "29.1 µM [falling, single point]"}
    ]},
    {"smiles": "Cc1n[nH]c(C)c1Sc1ccccc1N=Cc1cc([N+](=O)[O-])ccc1O", "values": [
      {"measurement": "AC50", "setting": "[1]", "value": "8.2 µM [rising, single point]"}
    ]},
    {"smiles": "CC1(C(=O)N/N=C/c2ccc3c(c2)OCO3)CC1(Br)Br", "note": "(stereo unspecified)", "values": [
      {"measurement": "AC50", "setting": "[1]", "value": "11.2 µM [falling, single point]"}
    ]},
    {"smiles": "C[C@H](CO)N1C[C@H](C)[C@H](CN(C)S(=O)(=O)c2cccs2)Oc2ccc(NC(=O)Nc3ccc4c(c3)OCO4)cc2CC1=O", "values": [
      {"measurement": "AC50", "setting": "[1]", "value": "29.1 µM [rising, single point]"}
    ]},
    {"smiles": "O=C(Nc1nnc(-c2cccs2)o1)C1CC1", "values": [
      {"measurement": "AC50", "setting": "[1]", "value": "11.2 µM [falling, partial curve, poor fit]"}
    ]},
    {"smiles": "Cc1ccnc(NC(c2ccccn2)c2c(C)[nH]c3ccccc23)c1", "note": "(stereo unspecified)", "values": [
      {"measurement": "AC50", "setting": "[1]", "value": "11.2 µM [falling, partial curve]"}
    ]},
    {"smiles": "CCOc1cc2[nH]c(=S)n(CCOC)c(=O)c2cc1OCC", "values": [
      {"measurement": "AC50", "setting": "[1]", "value": "9.2 µM [falling, partial curve, poor fit]"}
    ]},
    {"smiles": "CSc1nc2nc3c(c(=O)n2[nH]1)CCC3", "values": [
      {"measurement": "AC50", "setting": "[1]", "value": "0.082 µM [falling, full curve, poor fit]"}
    ]},
    {"smiles": "O=C(Nc1ccc(N2CCN(C(=O)c3ccco3)CC2)c(Cl)c1)c1cccs1", "values": [
      {"measurement": "AC50", "setting": "[1]", "value": "13 µM [falling, partial curve]"}
    ]},
    {"smiles": "Nc1ccc(C(=O)Nc2ccc(NC(=O)c3ccco3)c(O)c2)cc1", "values": [
      {"measurement": "AC50", "setting": "[1]", "value": "2.82 µM [falling, partial curve, poor fit]"}
    ]},
    {"smiles": "O=c1oc(-c2ccc(O)c(O)c2)cc2cccc(O)c12", "values": [
      {"measurement": "AC50", "setting": "[1]", "value": "32.6 µM [falling, single point]"}
    ]},
    {"smiles": "O=C(c1nnc(-c2ccc(Cl)cc2)o1)C1CCCC1", "values": [
      {"measurement": "AC50", "setting": "[1]", "value": "0.562 µM [rising, partial curve, poor fit]"}
    ]},
    {"smiles": "O=C(Nc1nccs1)c1ccc(-c2ccccc2[N+](=O)[O-])o1", "values": [
      {"measurement": "AC50", "setting": "[1]", "value": "7.94 µM [falling, partial curve]"}
    ]},
    {"smiles": "S=C(NCc1ccc(Cl)cc1)NC1CCN(Cc2ccccc2)CC1", "values": [
      {"measurement": "AC50", "setting": "[1]", "value": "12.6 µM [falling, partial curve, poor fit]"}
    ]},
    {"smiles": "C=C(Cl)COc1ccc2c(C)cc(=O)oc2c1", "values": [
      {"measurement": "AC50", "setting": "[1]", "value": "7.31 µM [rising, partial curve]"}
    ]},
    {"smiles": "CCN1C(=O)c2cccc3c(S(=O)(=O)Nc4c(C)n(C)n(-c5ccccc5)c4=O)ccc1c23", "values": [
      {"measurement": "AC50", "setting": "[1]", "value": "1.03 µM [falling, full curve, poor fit]"}
    ]},
    {"smiles": "O=C(NCC1CCCO1)c1ccc(N2C(=O)C3CCCCC3C2=O)cc1", "note": "(stereo unspecified)", "values": [
      {"measurement": "AC50", "setting": "[1]", "value": "35.5 µM [rising, partial curve, poor fit]"}
    ]},
    {"smiles": "COCC(C)N1CCC(Oc2cccc(C(=O)NCCc3ccccc3)c2)CC1", "note": "(stereo unspecified)", "values": [
      {"measurement": "AC50", "setting": "[1]", "value": "6.31 µM [falling, full curve]"}
    ]},
    {"smiles": "Fc1ccc(CSc2nc3ncc(Br)cc3[nH]2)cc1", "values": [
      {"measurement": "AC50", "setting": "[1]", "value": "5.8 µM [falling, full curve, poor fit]"}
    ]},
    {"smiles": "COc1ccc(/C=C/C(=O)O)cc1S(=O)(=O)N1CCc2ccccc21", "values": [
      {"measurement": "AC50", "setting": "[1]", "value": "6.31 µM [rising, single point]"}
    ]},
    {"smiles": "O=C(CN1CCCC1)N1CCCC(c2ccc(F)cc2)c2ccc(F)cc21", "note": "(stereo unspecified)", "values": [
      {"measurement": "AC50", "setting": "[1]", "value": "29.1 µM [falling, single point]"}
    ]},
    {"smiles": "CNS(=O)(=O)c1cccc(C(=O)OCC(=O)NC2CCCC(C)C2C)c1", "note": "(stereo unspecified)", "values": [
      {"measurement": "AC50", "setting": "[1]", "value": "29.1 µM [rising, single point]"}
    ]},
    {"smiles": "N=c1occ(C(=O)c2cc(F)ccc2O)cc1C(=O)NC1CCCCC1", "values": [
      {"measurement": "AC50", "setting": "[1]", "value": "11.2 µM [falling, partial curve]"}
    ]},
    {"smiles": "C=C(C)c1cccc(C(C)(C)NC(=O)N2CCC(C)CC2)c1", "values": [
      {"measurement": "AC50", "setting": "[1]", "value": "16.4 µM [falling, partial curve, poor fit]"}
    ]},
    {"smiles": "CCOCc1nnc(NC(=O)c2cccs2)s1", "values": [
      {"measurement": "AC50", "setting": "[1]", "value": "29.1 µM [falling, single point]"}
    ]},
    {"smiles": "COc1ccc(-c2csc(Cc3nnc(N4CCOCC4)n3-c3ccccc3)n2)cc1OC", "values": [
      {"measurement": "AC50", "setting": "[1]", "value": "20.6 µM [falling, single point]"}
    ]},
    {"smiles": "Cc1ccc(-c2nnc(Nc3cccc(O)c3)c3ccccc23)cc1S(=O)(=O)NCCO", "values": [
      {"measurement": "AC50", "setting": "[1]", "value": "20 µM [falling, single point]"}
    ]},
    {"smiles": "CCOC(=O)C1CCN(CC(=O)Nc2c(C(=O)OC)[nH]c3ccc(Cl)cc23)CC1", "values": [
      {"measurement": "AC50", "setting": "[1]", "value": "13 µM [falling, partial curve, poor fit]"}
    ]},
    {"smiles": "COc1ccccc1NC(=O)N1CCn2c(nc3ccccc32)C1", "values": [
      {"measurement": "AC50", "setting": "[1]", "value": "11.2 µM [falling, partial curve, poor fit]"}
    ]}
  ]
}
